From publication PMC10089971 (British journal of pharmacology, 2023)
Where a name gives a salt, the structure may show the parent alone.

Key:
[1] = LC-MS of CPT-11 metabolites in intestinal contents; type: in vivo; conditions: saline- or morphine-treated mice, three hours post CPT-11 75 mg/kg
[2] = tested on: MC38 colon adenocarcinoma cells; assay: MC38 subcutaneous tumor model, anti-tumor efficacy of CPT-11

CN1CC[C@]23c4c5ccc(O)c4O[C@H]2[C@@H](O)C=C[C@H]3[C@H]1C5 [morphine, Morphine sulfate]
SN-38G concentration in the small intestine [1]: not significantly different | body weight loss in tumor-bearing mice [2]: induced weight loss
